The supplement of paper PMC10849652
This is one part of the list.

Sequences of proteins named here, by UniProt entry; tags and fusion partners are left off. A change or cut given only in a name is not applied to a line headed by its entry.
UniProt Q9NX55: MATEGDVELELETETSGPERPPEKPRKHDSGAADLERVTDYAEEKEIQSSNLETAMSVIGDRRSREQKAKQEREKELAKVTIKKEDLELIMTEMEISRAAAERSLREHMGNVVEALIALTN
UniProt Q8NBZ0, whole entry, looked up: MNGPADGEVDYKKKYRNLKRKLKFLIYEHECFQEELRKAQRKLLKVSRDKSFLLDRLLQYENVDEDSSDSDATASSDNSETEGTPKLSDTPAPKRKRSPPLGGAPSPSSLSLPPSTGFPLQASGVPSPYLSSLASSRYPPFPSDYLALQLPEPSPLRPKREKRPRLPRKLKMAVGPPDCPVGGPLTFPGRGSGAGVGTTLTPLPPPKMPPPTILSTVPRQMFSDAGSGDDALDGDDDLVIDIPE
UniProt Q9NXR8, whole entry, looked up: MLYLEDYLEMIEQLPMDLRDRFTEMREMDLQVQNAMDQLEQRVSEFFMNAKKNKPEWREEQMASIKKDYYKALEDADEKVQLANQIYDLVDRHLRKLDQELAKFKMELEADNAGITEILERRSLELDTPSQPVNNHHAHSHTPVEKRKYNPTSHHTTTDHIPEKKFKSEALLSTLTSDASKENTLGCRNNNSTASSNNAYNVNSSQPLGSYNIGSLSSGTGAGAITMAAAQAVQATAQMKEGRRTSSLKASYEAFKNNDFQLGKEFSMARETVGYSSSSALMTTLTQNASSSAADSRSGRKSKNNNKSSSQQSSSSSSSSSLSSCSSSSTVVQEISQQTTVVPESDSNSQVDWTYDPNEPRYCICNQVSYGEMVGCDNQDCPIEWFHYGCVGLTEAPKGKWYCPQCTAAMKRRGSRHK
UniProt Q96LU5: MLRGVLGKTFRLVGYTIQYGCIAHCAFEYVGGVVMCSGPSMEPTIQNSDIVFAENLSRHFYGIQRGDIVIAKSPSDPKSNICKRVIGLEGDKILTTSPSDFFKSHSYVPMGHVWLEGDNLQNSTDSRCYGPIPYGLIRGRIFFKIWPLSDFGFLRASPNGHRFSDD
UniProt Q12906, whole entry, looked up: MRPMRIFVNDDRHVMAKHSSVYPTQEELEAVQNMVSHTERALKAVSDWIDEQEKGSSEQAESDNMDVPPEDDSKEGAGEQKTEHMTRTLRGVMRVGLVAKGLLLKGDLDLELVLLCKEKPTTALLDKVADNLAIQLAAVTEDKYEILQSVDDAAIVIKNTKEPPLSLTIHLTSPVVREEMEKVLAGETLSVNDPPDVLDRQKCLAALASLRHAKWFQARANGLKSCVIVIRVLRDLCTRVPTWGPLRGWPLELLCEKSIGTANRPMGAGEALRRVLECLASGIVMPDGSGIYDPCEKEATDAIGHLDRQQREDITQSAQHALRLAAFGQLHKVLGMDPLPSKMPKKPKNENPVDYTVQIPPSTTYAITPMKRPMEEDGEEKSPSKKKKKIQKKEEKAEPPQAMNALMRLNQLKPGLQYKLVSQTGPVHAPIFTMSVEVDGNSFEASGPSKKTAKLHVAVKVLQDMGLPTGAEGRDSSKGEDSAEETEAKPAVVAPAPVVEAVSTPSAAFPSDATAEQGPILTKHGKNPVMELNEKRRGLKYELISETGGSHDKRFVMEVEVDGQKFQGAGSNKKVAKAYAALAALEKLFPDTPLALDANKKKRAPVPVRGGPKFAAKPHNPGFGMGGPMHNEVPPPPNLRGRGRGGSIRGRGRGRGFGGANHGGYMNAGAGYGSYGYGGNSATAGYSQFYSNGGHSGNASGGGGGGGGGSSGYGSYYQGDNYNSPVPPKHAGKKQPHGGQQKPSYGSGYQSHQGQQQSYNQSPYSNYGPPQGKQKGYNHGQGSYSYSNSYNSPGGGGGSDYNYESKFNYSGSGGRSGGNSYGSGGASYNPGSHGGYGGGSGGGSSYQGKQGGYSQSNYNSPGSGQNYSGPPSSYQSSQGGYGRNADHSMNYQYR
UniProt P41134: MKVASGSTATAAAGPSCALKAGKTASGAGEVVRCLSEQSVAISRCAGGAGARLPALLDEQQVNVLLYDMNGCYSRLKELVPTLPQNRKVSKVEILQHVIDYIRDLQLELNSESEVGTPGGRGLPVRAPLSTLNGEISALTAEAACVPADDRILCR
UniProt Q9NWB7: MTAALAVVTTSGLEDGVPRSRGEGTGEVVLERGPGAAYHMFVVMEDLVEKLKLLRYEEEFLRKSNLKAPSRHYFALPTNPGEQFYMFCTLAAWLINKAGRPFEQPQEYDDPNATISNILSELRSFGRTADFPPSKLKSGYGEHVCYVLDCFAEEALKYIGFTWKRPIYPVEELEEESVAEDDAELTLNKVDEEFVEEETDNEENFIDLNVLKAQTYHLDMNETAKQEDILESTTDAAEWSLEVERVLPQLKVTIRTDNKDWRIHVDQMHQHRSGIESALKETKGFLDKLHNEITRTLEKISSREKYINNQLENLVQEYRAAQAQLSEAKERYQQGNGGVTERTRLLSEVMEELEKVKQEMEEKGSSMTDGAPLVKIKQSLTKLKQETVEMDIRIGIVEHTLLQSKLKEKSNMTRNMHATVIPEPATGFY
UniProt Q08334: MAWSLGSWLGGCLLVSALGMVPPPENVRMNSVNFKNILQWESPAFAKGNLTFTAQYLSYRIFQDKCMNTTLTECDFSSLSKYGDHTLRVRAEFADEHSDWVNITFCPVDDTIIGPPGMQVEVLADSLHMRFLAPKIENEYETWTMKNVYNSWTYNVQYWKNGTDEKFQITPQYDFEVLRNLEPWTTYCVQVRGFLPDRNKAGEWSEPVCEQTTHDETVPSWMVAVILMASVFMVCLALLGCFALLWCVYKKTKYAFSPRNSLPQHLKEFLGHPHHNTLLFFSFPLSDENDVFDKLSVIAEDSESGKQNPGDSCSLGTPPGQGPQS
UniProt Q9NQC8: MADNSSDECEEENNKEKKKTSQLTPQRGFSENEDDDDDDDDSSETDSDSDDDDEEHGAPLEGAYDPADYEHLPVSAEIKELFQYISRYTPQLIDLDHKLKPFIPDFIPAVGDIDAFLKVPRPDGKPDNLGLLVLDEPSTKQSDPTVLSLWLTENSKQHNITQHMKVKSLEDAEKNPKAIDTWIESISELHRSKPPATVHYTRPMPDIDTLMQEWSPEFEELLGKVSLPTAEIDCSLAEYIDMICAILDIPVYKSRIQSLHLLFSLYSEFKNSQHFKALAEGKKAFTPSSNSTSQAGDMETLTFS
UniProt Q96FT9: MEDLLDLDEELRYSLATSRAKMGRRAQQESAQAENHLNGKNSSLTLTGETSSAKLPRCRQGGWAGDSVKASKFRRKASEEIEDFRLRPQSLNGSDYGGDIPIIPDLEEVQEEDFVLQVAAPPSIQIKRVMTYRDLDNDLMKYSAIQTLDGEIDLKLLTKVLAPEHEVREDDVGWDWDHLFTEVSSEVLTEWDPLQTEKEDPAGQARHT
UniProt Q9UK53: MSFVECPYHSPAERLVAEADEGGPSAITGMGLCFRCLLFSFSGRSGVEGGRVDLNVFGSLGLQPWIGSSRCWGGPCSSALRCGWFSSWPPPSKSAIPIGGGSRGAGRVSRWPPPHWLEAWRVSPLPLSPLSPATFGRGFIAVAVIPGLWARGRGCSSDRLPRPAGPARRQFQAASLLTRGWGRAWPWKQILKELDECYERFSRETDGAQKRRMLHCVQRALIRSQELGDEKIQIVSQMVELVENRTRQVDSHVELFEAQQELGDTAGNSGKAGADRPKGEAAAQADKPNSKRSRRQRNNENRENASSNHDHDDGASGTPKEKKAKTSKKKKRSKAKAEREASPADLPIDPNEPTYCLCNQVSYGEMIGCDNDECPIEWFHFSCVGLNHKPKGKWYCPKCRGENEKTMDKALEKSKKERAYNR
UniProt P01876, whole entry, looked up: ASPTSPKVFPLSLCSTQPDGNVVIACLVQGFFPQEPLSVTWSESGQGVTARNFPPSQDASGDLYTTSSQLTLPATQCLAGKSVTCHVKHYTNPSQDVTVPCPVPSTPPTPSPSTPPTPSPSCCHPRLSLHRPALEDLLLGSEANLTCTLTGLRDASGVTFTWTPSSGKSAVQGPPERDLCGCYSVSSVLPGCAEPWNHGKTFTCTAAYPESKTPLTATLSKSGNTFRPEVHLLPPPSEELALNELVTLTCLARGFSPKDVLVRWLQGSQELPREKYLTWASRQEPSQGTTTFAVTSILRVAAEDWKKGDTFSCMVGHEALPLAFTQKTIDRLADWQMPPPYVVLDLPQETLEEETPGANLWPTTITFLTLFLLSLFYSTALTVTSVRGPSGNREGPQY
UniProt Q9UNL4, whole entry, looked up: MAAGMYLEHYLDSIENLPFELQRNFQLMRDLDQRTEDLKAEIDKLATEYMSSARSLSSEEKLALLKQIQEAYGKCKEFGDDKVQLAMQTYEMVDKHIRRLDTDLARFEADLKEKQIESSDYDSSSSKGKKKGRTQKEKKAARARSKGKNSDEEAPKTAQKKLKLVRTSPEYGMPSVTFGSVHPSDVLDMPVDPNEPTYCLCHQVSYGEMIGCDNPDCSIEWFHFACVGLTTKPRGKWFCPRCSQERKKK
UniProt Q9BYX4: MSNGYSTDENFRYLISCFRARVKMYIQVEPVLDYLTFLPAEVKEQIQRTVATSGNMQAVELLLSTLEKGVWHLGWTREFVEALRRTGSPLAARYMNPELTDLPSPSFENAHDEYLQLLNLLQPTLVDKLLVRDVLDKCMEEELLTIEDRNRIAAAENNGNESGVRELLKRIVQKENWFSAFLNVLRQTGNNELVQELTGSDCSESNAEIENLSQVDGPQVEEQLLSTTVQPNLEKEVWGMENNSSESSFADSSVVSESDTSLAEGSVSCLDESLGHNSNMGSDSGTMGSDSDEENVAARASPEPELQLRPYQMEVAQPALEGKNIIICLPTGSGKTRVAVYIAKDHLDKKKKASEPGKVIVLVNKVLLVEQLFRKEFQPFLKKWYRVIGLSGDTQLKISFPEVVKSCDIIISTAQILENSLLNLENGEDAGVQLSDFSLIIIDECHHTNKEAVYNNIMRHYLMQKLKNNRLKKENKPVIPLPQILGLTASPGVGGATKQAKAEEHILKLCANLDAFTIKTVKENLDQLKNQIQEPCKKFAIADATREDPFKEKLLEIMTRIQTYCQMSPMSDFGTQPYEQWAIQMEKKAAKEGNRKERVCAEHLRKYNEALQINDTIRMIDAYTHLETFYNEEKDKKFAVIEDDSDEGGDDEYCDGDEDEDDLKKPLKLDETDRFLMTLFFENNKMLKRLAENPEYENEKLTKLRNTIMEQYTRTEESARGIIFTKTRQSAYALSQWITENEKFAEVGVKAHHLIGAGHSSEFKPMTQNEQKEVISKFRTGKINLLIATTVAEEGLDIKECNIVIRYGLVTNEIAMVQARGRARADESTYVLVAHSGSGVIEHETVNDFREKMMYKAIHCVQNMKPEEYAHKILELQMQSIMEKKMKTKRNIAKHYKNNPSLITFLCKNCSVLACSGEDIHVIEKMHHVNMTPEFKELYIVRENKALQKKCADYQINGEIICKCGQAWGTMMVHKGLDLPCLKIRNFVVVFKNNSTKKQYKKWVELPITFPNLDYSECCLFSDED
UniProt O60725, whole entry, looked up: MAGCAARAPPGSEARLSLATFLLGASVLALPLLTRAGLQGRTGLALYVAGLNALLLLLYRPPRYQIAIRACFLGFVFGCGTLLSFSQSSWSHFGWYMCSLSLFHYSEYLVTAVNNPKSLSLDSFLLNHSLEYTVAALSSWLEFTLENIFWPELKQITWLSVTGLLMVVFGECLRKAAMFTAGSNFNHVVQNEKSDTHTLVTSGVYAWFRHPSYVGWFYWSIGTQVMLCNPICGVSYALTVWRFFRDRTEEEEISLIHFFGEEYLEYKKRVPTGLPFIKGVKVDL
UniProt Q9NRY2: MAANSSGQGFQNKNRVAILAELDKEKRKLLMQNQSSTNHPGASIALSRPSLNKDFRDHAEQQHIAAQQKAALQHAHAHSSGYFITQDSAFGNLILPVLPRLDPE

Assays:
Experiment in all cases: log2 fold change, soluble protein after heating vs DMSO (PISA); higher = thermal stabilisation; K562 lysate, 10 uM; active = over 0.2 and 3.5 SD of the protein, either way, in both replicates (recomputed)
ibrutinib = compound: C=CC(=O)N1CCC[C@@H](n2nc(-c3ccc(Oc4ccccc4)cc3)c3c(N)ncnc32)C1 [ibrutinib]
How it was run: (§1)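 Soluble protein was defined as the supernatant remaining after 21,000xg for 90 min, following pooling of heated aliquots and adjustment to 0.5% NP-40 at 4°C. Before that, crude K562 extract at 1 mg/mL protein in PBS pH 7.4 with 1 mM MgCl2 was treated with 10 μM compound for 30 min and heated for 3 min across 48°C-58°C. Quantification used TMTpro 16plex LC-MS/MS with channel sums equalised, and values are log-two fold changes in thermal stability relative to solvent controls from duplicates.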

[1] = compound: CC(=O)c1cnc2ccc(-c3cc(Cl)c(O)c(Cl)c3)nc2c1N[C@H]1CC[C@H](CN(C)C)CC1
How it was run: as §1

ralimetinib = compound: CC(C)(C)Cn1c(N)nc2ccc(-c3[nH]c(C(C)(C)C)nc3-c3ccc(F)cc3)nc21 [ralimetinib]
How it was run: as §1

[2] = compound: CC(C)(O)CC(=O)NCCn1ccc2ncnc(Nc3ccc(Oc4cccc(C(F)(F)F)c4)c(Cl)c3)c21
How it was run: as §1

[3] = compound: CC(C)C1=C2N=C(C=C(N2N=C1)NCC3=CC=CC=C3)NCCCCCCN
How it was run: as §1

[4] = compound: CC1=C(C(CC(=O)N1)C2=CC=C(C=C2)C(F)(F)F)C(=O)NC3=C(C=C4C(=C3)C=NN4)F
How it was run: as §1

[5] = compound: CC1=C(C2=C(C=C1)C(=O)C3=CC=CC=C3N2CCCN)C
How it was run: as §1

[6] = compound: CC1=C(C=C(C=C1)NC(=O)C2=CC(=CC=C2)C(C)(C)C#N)NC3=CC4=C(C=C3)N=CN(C4=O)C
How it was run: as §1

[7] = compound: CC1=C(C=C(C=C1)NC(=O)C2=CC(=CC=C2)N(C)C)NC(=O)C3=CC=C(C=C3)O
How it was run: as §1

[8] = compound: CC1=CC=C(C=C1)SC2=C3C=C(SC3=CN=C2)C(=O)N
How it was run: as §1

vemurafenib = compound: CCCS(=O)(=O)Nc1ccc(F)c(C(=O)c2c[nH]c3ncc(-c4ccc(Cl)cc4)cc23)c1F [vemurafenib]
How it was run: as §1

[9] = compound: CCCS(=O)(=O)Nc1ccc(F)c(C(=O)c2c[nH]c3ncc(Cl)cc23)c1F
How it was run: as §1

barasertib = compound: CCN(CCCOc1ccc2c(Nc3cc(CC(=O)Nc4cccc(F)c4)[nH]n3)ncnc2c1)CCOP(=O)(O)O [barasertib]
How it was run: as §1

[10] = compound: CC[C@@H]1C(=O)N(C)c2cnc(Nc3ccc(C(=O)NC4CCN(C)CC4)cc3OC)nc2N1C1CCCC1
How it was run: as §1

volasertib = compound: CC[C@@H]1C(=O)N(C)c2cnc(Nc3ccc(C(=O)N[C@H]4CC[C@H](N5CCN(CC6CC6)CC5)CC4)cc3OC)nc2N1C(C)C [volasertib]
How it was run: as §1

[11] = compound: CCn1c(C(=O)N(C2CC2)C2CC2)cc2c3c(ncn3C)c(Nc3cc(C)n(C)n3)nc21
How it was run: as §1

[12] = compound: CCn1cc(-c2ccnc3[nH]c(-c4cccc(CN(C)C)c4)cc23)c(-c2ccc(NC(=O)N(C)C)cc2)n1
How it was run: as §1

[13] = compound: CN1CCC(CNc2ccc3ncc(-c4cccc(OC(F)(F)F)c4)n3n2)CC1
How it was run: as §1

saracatinib = compound: CN1CCN(CCOc2cc(OC3CCOCC3)c3c(Nc4c(Cl)ccc5c4OCO5)ncnc3c2)CC1 [saracatinib]
How it was run: as §1

sotrastaurin = compound: CN1CCN(c2nc(C3=C(c4c[nH]c5ccccc45)C(=O)NC3=O)c3ccccc3n2)CC1 [sotrastaurin]
How it was run: as §1

Measured: log2 fold change

HYPK (UniProt Q9NX55)
inactive: ibrutinib 0.12 | [1] -0.013 | ralimetinib -0.001 | [2] -0.041 | [3] -0.016 | [4] 0.009 | [5] -0.019 | [6] -0.013 | [7] -0.034 | [8] -0.005 | vemurafenib -0.022 | [9] -0.036 | barasertib 0.125 | [10] 0.023 | volasertib 0.012 | [11] -0.042 | [12] -0.011 | [13] 0.001 | saracatinib 0.038 | sotrastaurin 0.02

INO80E (UniProt Q8NBZ0)
inactive: ibrutinib -0.053 | [1] -0.056 | ralimetinib 0.167 | [2] -0.126 | [3] 0.09 | [4] 0.081 | [5] 0.037 | [6] 0.122 | [7] -0.014 | [8] 0.134 | [9] 0.375 | barasertib -0.09 | [10] -0.02 | volasertib -0.144 | [11] -0.006 | [12] 0.168 | [13] -0.001 | saracatinib 0.161 | sotrastaurin 0.08

ING3 (UniProt Q9NXR8)
inactive: ibrutinib -0.013 | [1] -0.03 | ralimetinib 0.029 | [2] -0.002 | [3] 0.071 | [4] -0.032 | [5] -0.047 | [6] 0.042 | [7] 0.015 | [8] 0.069 | vemurafenib -0.022 | [9] -0.143 | barasertib 0.056 | [10] 0.034 | volasertib -0.016 | [11] -0.068 | [12] -0.153 | [13] -0.112 | saracatinib -0.008 | sotrastaurin -0.022

Copied from above (2 entries):
INO80E (UniProt Q8NBZ0)
inactive: ibrutinib -0.053 | [1] -0.056 | ralimetinib 0.167 | [2] -0.126 | [3] 0.09 | [4] 0.081 | [5] 0.037 | [6] 0.122 | [7] -0.014 | [8] 0.134 | [9] 0.375 | barasertib -0.09 | [10] -0.02 | volasertib -0.144 | [11] -0.006 | [12] 0.168 | [13] -0.001 | saracatinib 0.161 | sotrastaurin 0.08

ING3 (UniProt Q9NXR8)
inactive: ibrutinib -0.013 | [1] -0.03 | ralimetinib 0.029 | [2] -0.002 | [3] 0.071 | [4] -0.032 | [5] -0.047 | [6] 0.042 | [7] 0.015 | [8] 0.069 | vemurafenib -0.022 | [9] -0.143 | barasertib 0.056 | [10] 0.034 | volasertib -0.016 | [11] -0.068 | [12] -0.153 | [13] -0.112 | saracatinib -0.008 | sotrastaurin -0.022

Later entries.

IMMP1L (UniProt Q96LU5)
inactive: ibrutinib 0.04 | [1] 0.043 | ralimetinib 0.04 | [2] -0.021 | [3] -0.074 | [4] -0.036 | [5] -0.037 | [6] -0.007 | [7] 0.027 | [8] -0.069 | [9] -0.005 | barasertib 0.076 | [10] 0.207 | volasertib 0.019 | [11] -0.012 | [12] 0.005 | [13] -0.085 | saracatinib -0.052 | sotrastaurin -0.03

ILF3 (UniProt Q12906)
inactive: ibrutinib -0.005 | [1] 0.059 | [3] -0.037 | [5] -0.101 | [6] 0.014 | [8] -0.083 | vemurafenib -0.051 | [9] 0.013 | barasertib -0.066 | [10] -0.039 | volasertib -0.003 | [12] -0.417 | [13] -0.067 | saracatinib 0.076 | sotrastaurin -0.033

ID1 (UniProt P41134)
inactive: ibrutinib 0.31 | ralimetinib 0.08 | [2] -0.098 | [3] -0.125 | [4] -0.074 | [5] 0.027 | [6] 0 | [7] 0.033 | vemurafenib 0.036 | barasertib 0.063 | [11] 0.004 | [12] 0.032 | [13] 0.016 | saracatinib -0.068 | sotrastaurin -0.001

IFT57 (UniProt Q9NWB7)
inactive: [1] -0.208 | ralimetinib 0.125 | [2] -0.243 | [3] 0 | [4] -0.12 | [5] -0.047 | [6] 0.082 | [7] -0.42 | [8] 0.147 | [9] 0.137 | [10] -0.224 | volasertib 0.115 | [11] 0.05 | saracatinib -0.02 | sotrastaurin 0.012

IL10RB (UniProt Q08334)
inactive: [1] -0.056 | ralimetinib 0.023 | [2] -0.02 | [3] -0.002 | [4] -0.03 | [5] -0.012 | [6] 0.057 | [7] 0.09 | [8] 0.04 | vemurafenib 0.129 | [9] -0.007 | [10] 0.046 | volasertib -0.007 | [11] -0.02 | saracatinib 0.04 | sotrastaurin -0.163

IFT46 isoform 2 (UniProt Q9NQC8)
inactive: [1] -0.168 | [4] 0.071 | [6] -0.033 | [8] -0.267 | vemurafenib 0.201 | [9] 0.292 | [10] -0.094 | volasertib -0.138 | [12] -0.077 | [13] -0.018 | sotrastaurin -0.138

IFT43 (UniProt Q96FT9)
inactive: ibrutinib 0.015 | ralimetinib -0.713 | [2] 0.029 | [3] 0.169 | [5] 0.149 | [6] 0.079 | [7] 0.187 | vemurafenib -0.096 | barasertib 0.098 | [11] 0.21 | saracatinib 0.028 | sotrastaurin -0.052

ING1 (UniProt Q9UK53)
inactive: ibrutinib 0.019 | ralimetinib 0.118 | [2] 0.04 | [3] -0.086 | [5] 0 | [6] -0.004 | [7] -0.007 | barasertib 0.077 | [11] 0.021 | [12] 0.04 | [13] 0.029 | saracatinib 0.022 | sotrastaurin -0.022

HSPH1 (UniProt Q5TBM3)
inactive: ibrutinib -0.311 | [1] -0.045 | ralimetinib -0.128 | [2] -0.073 | [7] -0.007 | [8] -0.044 | [9] 0.039 | barasertib -0.185 | volasertib -0.086 | [11] 0.017 | [12] 0.057 | [13] 0.072

HSPH1 isoform 2 (UniProt Q92598)
inactive: ibrutinib -0.302 | [1] -0.083 | ralimetinib 0.006 | [2] 0.011 | [5] 0.169 | [7] -0.212 | [8] -0.102 | [9] 0.019 | barasertib -0.123 | [10] 0.061 | volasertib 0.135 | [11] 0.021 | saracatinib -0.003

IGHA1 (UniProt P01876)
inactive: ibrutinib -0.146 | ralimetinib 0.111 | [2] 0.551 | [3] 1.87 | [4] 2.29 | [5] 0.467 | [6] -0.103 | [7] -0.126 | vemurafenib 0.788 | barasertib -0.134 | [10] -0.328 | [11] -0.182 | [12] 0.941 | [13] -0.879 | saracatinib -0.249 | sotrastaurin -0.266

HYOU1 (UniProt J3QL06)
inactive: [1] 0.212 | ralimetinib 0.053 | [2] 0.007 | [3] 0.326 | [4] 0.017 | [5] 0.217 | [6] 0.149 | [7] 0.068 | [8] -0.066 | vemurafenib -0.214 | [9] -0.012 | [10] -0.121 | volasertib 0.029 | [11] -0.166 | saracatinib 0.099 | sotrastaurin -0.063

IL17RA (UniProt Q96F46)
inactive: ibrutinib 0 | [1] -0.054 | [5] 0.023 | [6] -0.1 | [8] 0.055 | [9] 0.122 | barasertib 0.361 | [10] 0.079 | volasertib -0.119 | [12] 0.035 | [13] 0.05 | saracatinib 0 | sotrastaurin 0.08

ING4 (UniProt Q9UNL4)
inactive: ibrutinib 0.213 | [1] -0.053 | [6] -0.131 | [8] -0.266 | [9] 0.018 | barasertib 0.016 | volasertib 0 | sotrastaurin -0.114

IFIH1 (UniProt Q9BYX4)
inactive: ibrutinib 0.125 | [1] 0.015 | [8] -0.129 | [9] 0.05 | barasertib 0.19 | [10] 0 | volasertib -0.012 | [12] 0.093 | [13] -0.515

ICMT (UniProt O60725)
inactive: ibrutinib 0.119 | ralimetinib -0.02 | [2] -0.066 | [4] 0.15 | [5] 0.053 | [6] 0.091 | [7] -0.009 | vemurafenib 0.12 | barasertib 0.018 | [10] 0.208 | [11] -0.037 | saracatinib -0.053 | sotrastaurin -0.039

ICE1 (UniProt Q9Y2F5)
inactive: ibrutinib 0.028 | ralimetinib 0 | [2] -0.259 | [4] -0.031 | [5] -0.083 | [6] -0.023 | [7] -0.028 | barasertib 0.178 | [10] 0.084 | [11] -0.274 | [12] -0.006 | [13] 0.041 | saracatinib -0.169 | sotrastaurin -0.1

INIP (UniProt Q9NRY2)
inactive: [1] -0.09 | ralimetinib 0.051 | [2] 0.039 | [3] -0.018 | [5] -0.085 | [7] -0.126 | [8] 0.029 | vemurafenib -0.053 | [9] -0.022 | volasertib -0.037 | [11] 0.179 | saracatinib -0.091

IGLC3 (UniProt P0DOY3)
inactive: ibrutinib -0.48 | [3] 1.69 | [4] 2.14 | [5] 0.113 | barasertib -0.551 | [12] 0.788 | [13] -1.02 | saracatinib -0.232
